In the supplement of paper PMC6078165:
± gives the standard deviation of the averaged measurements. The reference is the same well before dosing, and untreated signal decays as well.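 Fibroblast labels denote human fibroblasts, mainly primary ones from uterus (C12385, HUF), lung (H6013), bone (Hs27A), adrenal (HADF) and skin (WS1), plus mammary HMF and breast cancer-associated Hs343T. Cancer cells are basal-like or mesenchymal-like triple-negative breast cancer lines. A hit is a response shift exceeding 3x replicate standard deviation. The tissue of the other fibroblasts is not given here.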

Test system: BT20
Assay: relative JC-1 red fluorescence (viability) vs pre-drug, coculture with fibroblast (fraction); higher = more viable cancer cells
Details: 10 µM
Experimental: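 JC-1 labelled TNBC cells cocultured 1:1 (1,500 cells each) with CellTrace Violet stained primary or stromal fibroblasts in 384-well plates in FluoroBrite medium, treated with one of 42 anticancer drugs at 0.1, 1, 10 or 100 uM. JC-1 red fluorescence (mitochondrial integrity in cancer cells only) was read by plate reader every 8 h for 72 h. Values are normalised to each well's pre-drug value. The stock of one drug was tenfold lower, so its dose labels may be too high.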

CC[C@]1(O)C[C@H]2CN(CCc3c([nH]c4ccccc34)[C@@](C(=O)OC)(c3cc4c(cc3OC)N(C=O)[C@H]3[C@@](O)(C(=O)OC)[C@H](OC(C)=O)[C@]5(CC)C=CCN6CC[C@]43[C@@H]65)C2)C1 [Vincristine]
relative JC-1 red fluorescence
Details	8 h	16 h	24 h	32 h	40 h	48 h	56 h	64 h	72 h
coculture fibroblast: C12385	0.891 ± 0.018	0.871 ± 0.039	0.855 ± 0.083	0.809 ± 0.11	0.759 ± 0.11	0.729 ± 0.12	0.706 ± 0.13	0.685 ± 0.15	0.668 ± 0.16
coculture fibroblast: H6013	0.9374 ± 0.0087	0.9208 ± 0.0015	0.905 ± 0.031	0.861 ± 0.033	0.836 ± 0.053	0.829 ± 0.081	0.843 ± 0.11	0.832 ± 0.12	0.831 ± 0.15
coculture fibroblast: H6019	0.8705 ± 0.0058	0.83 ± 0.0043	0.845 ± 0.012	0.805 ± 0.013	0.78 ± 0.014	0.776 ± 0.01	0.7604 ± 0.0072	0.749 ± 0.0036	0.7484 ± 0.0063
coculture fibroblast: H6076	0.914 ± 0.023	0.937 ± 0.076	0.891 ± 0.046	0.885 ± 0.013	0.863 ± 0.018	0.855 ± 0.035	0.859 ± 0.048	0.869 ± 0.059	0.868 ± 0.063
coculture fibroblast: H6231	0.868 ± 0.073	0.962 ± 0.028	0.896 ± 0.045	0.827 ± 0.052	0.768 ± 0.056	0.704 ± 0.063	0.654 ± 0.046	0.622 ± 0.038	0.579 ± 0.046
coculture fibroblast: HADF	0.914 ± 0.081	0.944 ± 0.053	0.84 ± 0.04	0.821 ± 0.08	0.762 ± 0.063	0.709 ± 0.067	0.688 ± 0.07	0.66 ± 0.065	0.618 ± 0.072
coculture fibroblast: HCFa	0.95477 ± 0.00022	0.942 ± 0.033	0.917 ± 0.035	0.868 ± 0.033	0.828 ± 0.01	0.799 ± 0.017	0.764 ± 0.016	0.734 ± 0.037	0.708 ± 0.04
coculture fibroblast: HCPF	0.9335 ± 0.0093	0.935 ± 0.065	0.904 ± 0.048	0.873 ± 0.035	0.849 ± 0.03	0.802 ± 0.017	0.7609 ± 0.0071	0.765 ± 0.019	0.722 ± 0.027
coculture fibroblast: HHSteC	0.9377 ± 0.0063	0.921 ± 0.012	0.865 ± 0.0096	0.783 ± 0.014	0.717 ± 0.028	0.659 ± 0.023	0.614 ± 0.017	0.584 ± 0.015	0.561 ± 0.014
coculture fibroblast: HMF	0.857 ± 0.16	0.908 ± 0.014	0.82 ± 0.015	0.7576 ± 0.0069	0.72 ± 0.0082	0.6797 ± 0.0016	0.658 ± 0.015	0.628 ± 0.016	0.597 ± 0.026
coculture fibroblast: HPFa	0.948 ± 0.014	0.8921 ± 0.0033	0.906 ± 0.011	0.8308 ± 0.0023	0.8345 ± 0.0056	0.802 ± 0.012	0.78 ± 0.024	0.765 ± 0.039	0.735 ± 0.027
coculture fibroblast: HUF	0.902 ± 0.014	0.833 ± 0.028	0.802 ± 0.059	0.729 ± 0.074	0.673 ± 0.076	0.628 ± 0.085	0.605 ± 0.085	0.585 ± 0.086	0.572 ± 0.087
coculture fibroblast: Hs5	0.959 ± 0.05	0.944 ± 0.0095	0.8938 ± 0.0074	0.854 ± 0.026	0.821 ± 0.033	0.797 ± 0.015	0.784 ± 0.0064	0.763 ± 0.022	0.774 ± 0.03
coculture fibroblast: Hs27A	0.872 ± 0.048	0.819 ± 0.063	0.88 ± 0.16	0.866 ± 0.16	0.965 ± 0.041	0.933 ± 0.04	0.916 ± 0.045	0.889 ± 0.047	0.851 ± 0.046
coculture fibroblast: Hs343T	0.859 ± 0.06	0.951 ± 0.023	0.867 ± 0.015	0.8 ± 0.011	0.734 ± 0.0063	0.669 ± 0.012	0.612 ± 0.012	0.592 ± 0.011	0.561 ± 0.0066
coculture fibroblast: WS1	0.854 ± 0.015	0.801 ± 0.019	0.755 ± 0.022	0.693 ± 0.016	0.638 ± 0.033	0.607 ± 0.034	0.566 ± 0.034	0.524 ± 0.034	0.494 ± 0.027
